# This is one part of the list.
# By UniProt entry, the sequences of proteins in these tests, tags left out. Where a name states a change or a piece, a line headed by the entry shows the natural chain unless it says otherwise.
# UniProt Q96BS2: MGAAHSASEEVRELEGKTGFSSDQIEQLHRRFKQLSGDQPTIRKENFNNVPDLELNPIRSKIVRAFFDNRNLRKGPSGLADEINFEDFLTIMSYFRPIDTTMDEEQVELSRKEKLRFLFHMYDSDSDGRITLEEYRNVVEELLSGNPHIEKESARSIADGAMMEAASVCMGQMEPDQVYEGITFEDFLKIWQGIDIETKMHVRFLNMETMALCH
# UniProt P28347, whole entry, looked up: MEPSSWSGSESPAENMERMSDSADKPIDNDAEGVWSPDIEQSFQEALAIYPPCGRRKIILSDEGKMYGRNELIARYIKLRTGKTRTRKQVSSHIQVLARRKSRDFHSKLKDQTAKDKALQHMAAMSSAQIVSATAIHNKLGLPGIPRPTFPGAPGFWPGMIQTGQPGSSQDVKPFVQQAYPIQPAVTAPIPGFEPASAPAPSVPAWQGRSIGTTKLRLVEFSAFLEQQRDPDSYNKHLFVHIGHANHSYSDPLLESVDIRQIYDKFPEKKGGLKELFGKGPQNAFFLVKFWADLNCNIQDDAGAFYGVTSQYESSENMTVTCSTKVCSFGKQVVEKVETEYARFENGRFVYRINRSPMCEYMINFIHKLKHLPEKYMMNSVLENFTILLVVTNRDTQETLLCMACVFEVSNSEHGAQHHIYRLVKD
# UniProt Q5QJ74: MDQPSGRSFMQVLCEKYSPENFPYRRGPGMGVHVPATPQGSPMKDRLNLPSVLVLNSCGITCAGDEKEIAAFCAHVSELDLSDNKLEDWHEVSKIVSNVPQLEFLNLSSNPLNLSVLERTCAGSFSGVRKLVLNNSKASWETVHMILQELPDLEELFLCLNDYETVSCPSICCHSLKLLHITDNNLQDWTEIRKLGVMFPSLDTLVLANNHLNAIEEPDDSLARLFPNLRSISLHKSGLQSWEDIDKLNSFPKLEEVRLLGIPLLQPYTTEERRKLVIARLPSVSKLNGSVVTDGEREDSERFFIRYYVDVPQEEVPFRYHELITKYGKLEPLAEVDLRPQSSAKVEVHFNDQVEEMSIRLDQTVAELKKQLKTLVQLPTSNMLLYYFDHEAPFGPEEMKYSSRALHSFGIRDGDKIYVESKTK
# UniProt O75347: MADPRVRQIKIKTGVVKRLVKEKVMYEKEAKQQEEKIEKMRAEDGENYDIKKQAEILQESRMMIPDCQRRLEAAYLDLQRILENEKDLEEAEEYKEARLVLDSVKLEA
# UniProt Q9NXF1: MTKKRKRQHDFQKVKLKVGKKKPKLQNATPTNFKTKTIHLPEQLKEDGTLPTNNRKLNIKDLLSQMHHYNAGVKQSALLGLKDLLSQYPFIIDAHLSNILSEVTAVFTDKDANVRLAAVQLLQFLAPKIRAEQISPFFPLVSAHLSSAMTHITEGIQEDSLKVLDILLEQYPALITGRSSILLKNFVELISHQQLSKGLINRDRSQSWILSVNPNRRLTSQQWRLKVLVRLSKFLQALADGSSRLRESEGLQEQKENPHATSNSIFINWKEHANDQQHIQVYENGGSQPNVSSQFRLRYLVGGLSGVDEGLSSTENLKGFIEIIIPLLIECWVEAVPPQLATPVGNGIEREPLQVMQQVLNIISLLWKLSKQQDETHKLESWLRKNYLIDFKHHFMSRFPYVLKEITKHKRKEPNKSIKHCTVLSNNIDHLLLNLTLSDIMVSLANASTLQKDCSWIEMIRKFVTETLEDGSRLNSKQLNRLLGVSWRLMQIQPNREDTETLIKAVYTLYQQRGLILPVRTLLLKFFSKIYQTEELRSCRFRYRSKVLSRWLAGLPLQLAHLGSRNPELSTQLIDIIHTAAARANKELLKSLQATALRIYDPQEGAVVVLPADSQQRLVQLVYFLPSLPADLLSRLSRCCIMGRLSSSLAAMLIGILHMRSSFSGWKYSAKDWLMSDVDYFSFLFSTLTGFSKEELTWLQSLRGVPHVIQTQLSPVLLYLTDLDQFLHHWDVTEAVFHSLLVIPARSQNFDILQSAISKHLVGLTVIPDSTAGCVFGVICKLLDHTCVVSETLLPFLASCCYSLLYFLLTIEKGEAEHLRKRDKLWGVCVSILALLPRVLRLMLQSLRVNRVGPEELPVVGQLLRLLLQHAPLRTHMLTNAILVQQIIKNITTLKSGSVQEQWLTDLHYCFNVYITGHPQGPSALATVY
# UniProt Q96BZ9: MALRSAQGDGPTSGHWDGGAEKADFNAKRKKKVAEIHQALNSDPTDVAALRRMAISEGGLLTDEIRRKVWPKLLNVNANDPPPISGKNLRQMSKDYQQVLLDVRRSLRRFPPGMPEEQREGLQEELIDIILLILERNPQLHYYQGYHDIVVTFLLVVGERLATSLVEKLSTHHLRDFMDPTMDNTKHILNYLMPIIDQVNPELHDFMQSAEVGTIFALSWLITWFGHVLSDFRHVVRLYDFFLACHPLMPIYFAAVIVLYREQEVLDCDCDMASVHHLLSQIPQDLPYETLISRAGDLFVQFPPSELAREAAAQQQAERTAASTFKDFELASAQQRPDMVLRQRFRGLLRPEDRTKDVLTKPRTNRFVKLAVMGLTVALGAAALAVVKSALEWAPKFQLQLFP
# UniProt Q9C0B7: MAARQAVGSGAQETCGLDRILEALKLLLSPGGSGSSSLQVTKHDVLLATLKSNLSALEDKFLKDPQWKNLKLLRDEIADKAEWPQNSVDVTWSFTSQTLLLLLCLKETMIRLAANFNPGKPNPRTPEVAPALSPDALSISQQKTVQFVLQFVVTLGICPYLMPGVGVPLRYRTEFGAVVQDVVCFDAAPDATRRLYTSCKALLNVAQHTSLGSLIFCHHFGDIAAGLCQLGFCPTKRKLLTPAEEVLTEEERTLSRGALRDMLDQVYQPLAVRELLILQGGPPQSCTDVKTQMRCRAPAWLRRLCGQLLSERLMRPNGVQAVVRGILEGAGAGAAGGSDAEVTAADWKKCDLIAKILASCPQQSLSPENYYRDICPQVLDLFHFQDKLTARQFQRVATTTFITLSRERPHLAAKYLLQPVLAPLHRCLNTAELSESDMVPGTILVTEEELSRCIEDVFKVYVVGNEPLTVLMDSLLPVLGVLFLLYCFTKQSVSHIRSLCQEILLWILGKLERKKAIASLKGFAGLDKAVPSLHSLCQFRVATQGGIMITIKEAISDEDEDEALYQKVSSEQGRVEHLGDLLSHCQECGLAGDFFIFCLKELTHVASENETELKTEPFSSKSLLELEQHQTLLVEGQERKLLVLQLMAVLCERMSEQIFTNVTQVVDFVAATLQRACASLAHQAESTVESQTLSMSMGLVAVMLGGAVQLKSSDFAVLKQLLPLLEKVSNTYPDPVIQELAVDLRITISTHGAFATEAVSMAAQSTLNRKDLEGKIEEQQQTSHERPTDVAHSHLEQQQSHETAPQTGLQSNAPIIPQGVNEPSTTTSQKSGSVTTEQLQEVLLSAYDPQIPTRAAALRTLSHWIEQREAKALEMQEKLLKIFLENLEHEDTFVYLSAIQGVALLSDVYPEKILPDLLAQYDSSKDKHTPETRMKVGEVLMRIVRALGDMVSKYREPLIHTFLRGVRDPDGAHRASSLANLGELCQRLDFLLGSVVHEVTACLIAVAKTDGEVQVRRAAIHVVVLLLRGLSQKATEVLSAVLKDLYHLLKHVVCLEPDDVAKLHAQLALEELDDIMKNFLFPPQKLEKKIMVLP
# UniProt Q8WUA7: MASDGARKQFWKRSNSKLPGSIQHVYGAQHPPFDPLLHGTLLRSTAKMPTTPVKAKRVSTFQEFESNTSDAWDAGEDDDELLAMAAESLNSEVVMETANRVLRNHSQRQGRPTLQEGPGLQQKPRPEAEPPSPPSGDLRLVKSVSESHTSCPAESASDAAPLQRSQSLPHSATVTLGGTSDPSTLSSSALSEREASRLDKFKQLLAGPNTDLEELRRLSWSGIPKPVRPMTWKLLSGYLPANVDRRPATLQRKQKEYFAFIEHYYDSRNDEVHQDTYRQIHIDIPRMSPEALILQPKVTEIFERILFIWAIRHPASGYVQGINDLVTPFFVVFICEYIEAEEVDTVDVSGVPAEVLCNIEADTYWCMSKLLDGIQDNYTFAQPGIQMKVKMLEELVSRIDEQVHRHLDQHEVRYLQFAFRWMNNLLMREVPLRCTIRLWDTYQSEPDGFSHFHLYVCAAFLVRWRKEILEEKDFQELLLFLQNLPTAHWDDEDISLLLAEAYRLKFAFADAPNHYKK
# UniProt Q8IWB9: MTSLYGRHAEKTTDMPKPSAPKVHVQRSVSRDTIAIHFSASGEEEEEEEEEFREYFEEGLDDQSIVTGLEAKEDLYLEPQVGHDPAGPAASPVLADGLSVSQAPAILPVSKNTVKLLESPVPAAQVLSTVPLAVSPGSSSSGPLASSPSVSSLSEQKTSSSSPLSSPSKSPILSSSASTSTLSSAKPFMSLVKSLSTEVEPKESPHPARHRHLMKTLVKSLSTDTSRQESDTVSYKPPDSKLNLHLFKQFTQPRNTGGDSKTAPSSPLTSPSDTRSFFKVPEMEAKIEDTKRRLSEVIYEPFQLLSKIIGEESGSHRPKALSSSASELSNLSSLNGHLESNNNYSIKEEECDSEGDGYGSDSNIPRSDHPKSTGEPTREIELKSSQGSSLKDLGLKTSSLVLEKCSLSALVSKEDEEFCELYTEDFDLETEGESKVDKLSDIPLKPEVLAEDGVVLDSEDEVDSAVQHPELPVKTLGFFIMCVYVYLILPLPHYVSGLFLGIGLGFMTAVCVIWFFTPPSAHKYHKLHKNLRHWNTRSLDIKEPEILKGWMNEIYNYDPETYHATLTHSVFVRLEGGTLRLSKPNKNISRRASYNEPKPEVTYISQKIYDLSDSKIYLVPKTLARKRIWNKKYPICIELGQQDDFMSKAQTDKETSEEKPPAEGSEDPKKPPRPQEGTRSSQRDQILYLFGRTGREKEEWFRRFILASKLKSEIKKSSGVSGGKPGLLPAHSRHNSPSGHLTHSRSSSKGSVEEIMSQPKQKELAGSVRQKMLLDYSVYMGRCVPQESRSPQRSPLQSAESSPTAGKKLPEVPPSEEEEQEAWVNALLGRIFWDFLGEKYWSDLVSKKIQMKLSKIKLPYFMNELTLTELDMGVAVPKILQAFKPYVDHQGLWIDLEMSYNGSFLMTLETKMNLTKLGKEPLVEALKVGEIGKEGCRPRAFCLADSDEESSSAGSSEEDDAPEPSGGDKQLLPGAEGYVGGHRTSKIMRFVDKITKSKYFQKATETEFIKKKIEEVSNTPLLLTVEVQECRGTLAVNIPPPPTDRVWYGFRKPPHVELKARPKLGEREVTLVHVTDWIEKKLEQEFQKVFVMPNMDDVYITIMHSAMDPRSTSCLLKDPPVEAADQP
# UniProt Q9UL54: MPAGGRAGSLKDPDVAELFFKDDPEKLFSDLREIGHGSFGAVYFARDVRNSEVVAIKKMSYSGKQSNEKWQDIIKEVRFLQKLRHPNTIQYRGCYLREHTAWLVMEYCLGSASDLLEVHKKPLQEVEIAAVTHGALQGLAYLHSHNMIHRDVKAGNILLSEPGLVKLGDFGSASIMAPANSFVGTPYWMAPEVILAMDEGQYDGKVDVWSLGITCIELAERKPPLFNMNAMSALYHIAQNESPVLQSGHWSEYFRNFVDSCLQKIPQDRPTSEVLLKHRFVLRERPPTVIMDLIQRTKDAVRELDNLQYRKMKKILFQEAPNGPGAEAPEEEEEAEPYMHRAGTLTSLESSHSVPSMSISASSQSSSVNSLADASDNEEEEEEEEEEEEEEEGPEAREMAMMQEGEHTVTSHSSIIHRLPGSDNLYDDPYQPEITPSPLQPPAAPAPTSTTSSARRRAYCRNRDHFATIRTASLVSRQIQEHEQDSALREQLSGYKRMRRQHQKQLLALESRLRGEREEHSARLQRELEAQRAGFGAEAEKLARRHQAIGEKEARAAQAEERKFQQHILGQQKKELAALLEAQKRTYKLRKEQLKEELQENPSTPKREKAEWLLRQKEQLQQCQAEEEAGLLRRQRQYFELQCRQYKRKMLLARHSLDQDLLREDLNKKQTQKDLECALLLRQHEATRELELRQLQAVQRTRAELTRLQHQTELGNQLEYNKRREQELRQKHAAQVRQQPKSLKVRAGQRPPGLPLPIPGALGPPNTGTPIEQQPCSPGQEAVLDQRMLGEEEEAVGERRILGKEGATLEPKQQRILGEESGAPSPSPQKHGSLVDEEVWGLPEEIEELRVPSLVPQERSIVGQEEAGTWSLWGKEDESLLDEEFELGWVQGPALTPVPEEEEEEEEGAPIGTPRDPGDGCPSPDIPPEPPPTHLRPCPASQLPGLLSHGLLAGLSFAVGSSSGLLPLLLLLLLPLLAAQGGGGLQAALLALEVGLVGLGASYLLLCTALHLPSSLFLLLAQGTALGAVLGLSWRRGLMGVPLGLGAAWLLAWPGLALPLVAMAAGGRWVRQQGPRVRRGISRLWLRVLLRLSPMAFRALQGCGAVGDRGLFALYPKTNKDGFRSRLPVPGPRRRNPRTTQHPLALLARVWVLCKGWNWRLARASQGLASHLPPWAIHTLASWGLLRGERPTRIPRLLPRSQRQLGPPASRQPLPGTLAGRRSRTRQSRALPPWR
# Compound: CC1=C2C(=CC=C1)N=C(N(C2=O)C3=CC=CC=C3C)CN4C=NC5=C(N=CN=C54)N
# Assay: log2 fold change, soluble protein after heating vs DMSO (PISA); higher = thermal stabilisation; K562 lysate, 10 uM; active = over 0.2 and 3.5 SD of the protein, either way, in both replicates (recomputed)
# Summary of the method: (§1)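 Thermal stability, expressed as log-two fold change relative to solvent controls, is given from duplicates. Crude K562 extract in PBS pH 7.4 with 1 mM MgCl2, at 1 mg/mL protein, was treated with 10 μM compound for 30 min and heated in aliquots for 3 min across 48°C-58°C. After pooling, adjustment to 0.5% NP-40 at 4°C and centrifugation at 21,000xg for 90 min, supernatant protein was measured by TMTpro 16plex LC-MS/MS with channel sums equalised.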
row,Target,log2 fold change
1,TARDBP (UniProt Q13148),inactive: 0.067
2,TAX1BP1 (UniProt Q86VP1),inactive: -0.032
3,TESC (UniProt Q96BS2),inactive: -0.001
4,TAF9 (UniProt Q16594),inactive: 0.05
5,TCEA1 (UniProt P23193),inactive: -0.028
6,TAF7 (UniProt Q15545),inactive: 0.032
7,"TEPSIN, A0A1B0GV70",inactive: 0.058
8,TDP1 (UniProt Q9NUW8),inactive: 0
9,TCEANC2 (UniProt Q96MN5),inactive: 0.081
10,TBL2 (UniProt Q9Y4P3),inactive: 0.033
11,TEAD1 (UniProt P28347),inactive: -0.005
12,TBCEL (UniProt Q5QJ74),inactive: -0.013
13,TBC1D8B (UniProt Q0IIM8),inactive: -0.038
14,TFDP2 (UniProt Q14188),inactive: 0.143
15,TCP11L1 (UniProt Q9NUJ3),inactive: -0.02
16,TBCA (UniProt O75347),inactive: -0.007
17,TERF2IP (UniProt Q9NYB0),inactive: -0.077
18,TAPBP isoform 3 (UniProt O15533),inactive: 0.069

row,Target,log2 fold change
1,TATDN1 isoform 2 (UniProt Q6P1N9),inactive: 0.128
2,TBL3 (UniProt Q12788),inactive: -0.014
3,TEX10 (UniProt Q9NXF1),inactive: 0.045
4,TCEAL1 isoform 2 (UniProt Q15170),inactive: 0.05
5,TATDN1 (UniProt Q6P1N9),inactive: -0.01
6,TBC1D5 isoform 2 (UniProt Q92609),inactive: 0.025
7,TBC1D2B (UniProt Q9UPU7),inactive: -0.048
8,TBC1D17 (UniProt Q9HA65),inactive: 0.014
9,TBCB (UniProt Q99426),inactive: 0.007
10,TARBP1 (UniProt Q13395),inactive: 0.112
11,TBC1D20 isoform 3 (UniProt Q96BZ9),inactive: 0.005
12,TF (UniProt P02787),inactive: -0.029
13,TANGO6 (UniProt Q9C0B7),inactive: -0.036
14,TBC1D22A (UniProt Q8WUA7),inactive: 0.012
15,TEX2 isoform 2 (UniProt Q8IWB9),inactive: -0.037
16,TBC1D9B isoform 2 (UniProt Q66K14),inactive: 0.041
17,TAOK2 (UniProt Q9UL54),inactive: -0.001

# Compound: Cc1sc2c(c1C)C(c1ccc(Cl)cc1)=N[C@@H](CC(=O)OC(C)(C)C)c1nnc(C)n1-2
# Assay: as above
# Summary of the method: as §1
row,Target,log2 fold change
1,TARDBP (UniProt Q13148),inactive: -0.145
2,TAX1BP1 (UniProt Q86VP1),inactive: 0.01
3,TESC (UniProt Q96BS2),inactive: 0.004
4,TAF9 (UniProt Q16594),inactive: 0.019
5,TCEA1 (UniProt P23193),inactive: -0.031
6,TAF7 (UniProt Q15545),inactive: 0
7,"TEPSIN, A0A1B0GV70",inactive: -0.076
8,TDP1 (UniProt Q9NUW8),inactive: -0.066
9,TCEANC2 (UniProt Q96MN5),inactive: -0.086
10,TBL2 (UniProt Q9Y4P3),inactive: 0.039
11,TEAD1 (UniProt P28347),inactive: -0.134
12,TBCEL (UniProt Q5QJ74),inactive: -0.023
13,TBC1D8B (UniProt Q0IIM8),inactive: -0.013
14,TFDP2 (UniProt Q14188),inactive: -0.117
15,TCP11L1 (UniProt Q9NUJ3),inactive: -0.021
16,TBCA (UniProt O75347),inactive: 0.068
17,TERF2IP (UniProt Q9NYB0),inactive: -0.03

row,Target,log2 fold change
1,TAPBP isoform 3 (UniProt O15533),inactive: -0.043
2,TBL3 (UniProt Q12788),inactive: -0.014
3,TEX10 (UniProt Q9NXF1),inactive: 0.001
4,TATDN1 (UniProt Q6P1N9),inactive: -0.029
5,TBC1D5 isoform 2 (UniProt Q92609),inactive: 0.005
6,TBC1D2B (UniProt Q9UPU7),inactive: -0.065
7,TBC1D17 (UniProt Q9HA65),inactive: -0.091
8,TBCB (UniProt Q99426),inactive: -0.071
9,TARBP1 (UniProt Q13395),inactive: 0.016
10,TBC1D20 isoform 3 (UniProt Q96BZ9),inactive: -0.007
11,TF (UniProt P02787),inactive: -0.13
12,TANGO6 (UniProt Q9C0B7),inactive: 0.043
13,TBC1D22A (UniProt Q8WUA7),inactive: 0.02
14,TEX2 isoform 2 (UniProt Q8IWB9),inactive: -0.025
15,TBC1D9B isoform 2 (UniProt Q66K14),inactive: -0.009
16,TAOK2 (UniProt Q9UL54),inactive: 0.242

# Compound: c1ccc([C@@H]2C[C@H]2NC2CCNCC2)cc1
# Assay: as above
# Summary of the method: as §1
row,Target,log2 fold change
1,TARDBP (UniProt Q13148),inactive: -0.041
2,TAX1BP1 (UniProt Q86VP1),inactive: -0.002
3,TESC (UniProt Q96BS2),inactive: 0.016
4,TAF9 (UniProt Q16594),inactive: 0.021
5,TCEA1 (UniProt P23193),inactive: -0.036
6,TAF7 (UniProt Q15545),inactive: 0.004
7,"TEPSIN, A0A1B0GV70",inactive: -0.028
8,TDP1 (UniProt Q9NUW8),inactive: 0.024
9,TBL2 (UniProt Q9Y4P3),inactive: 0.071
10,TEAD1 (UniProt P28347),inactive: 0.045
11,TBCEL (UniProt Q5QJ74),inactive: -0.165
12,TBC1D8B (UniProt Q0IIM8),inactive: -0.101
13,TCP11L1 (UniProt Q9NUJ3),inactive: -0.095
14,TBCA (UniProt O75347),inactive: -0.018
15,TERF2IP (UniProt Q9NYB0),inactive: 0.116
16,TBL3 (UniProt Q12788),inactive: 0.014
17,TEX10 (UniProt Q9NXF1),inactive: 0.061
18,TATDN1 (UniProt Q6P1N9),inactive: 0.012
19,TBC1D5 isoform 2 (UniProt Q92609),inactive: -0.038
20,TBC1D2B (UniProt Q9UPU7),inactive: -0.008
21,TBC1D17 (UniProt Q9HA65),inactive: 0.032
22,TBCB (UniProt Q99426),inactive: -0.035
23,TARBP1 (UniProt Q13395),inactive: 0.053
24,TBC1D20 isoform 3 (UniProt Q96BZ9),inactive: 0.015
25,TF (UniProt P02787),inactive: 0.001
26,TANGO6 (UniProt Q9C0B7),inactive: -0.009
27,TBC1D22A (UniProt Q8WUA7),inactive: 0.017
28,TEX2 isoform 2 (UniProt Q8IWB9),inactive: 0.146
29,TBC1D9B isoform 2 (UniProt Q66K14),inactive: -0.081
30,TAOK2 (UniProt Q9UL54),inactive: -0.105
